Some of the results follow. These are further read-outs of the screen, such as a control signal, another cell line or another target. No call is given for them. Compounds called inactive in the main read-out are mostly missing here. Words in brackets tell the shape of the fitted curve; partial curves, single points and poor fits give uncertain potencies.
Experiment: qHTS Assay for Lipid Storage Modulators in Drosophila S3 Cells;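 on cell number change: cells counted by Cell Tracker Red CMTPX staining in the red channel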
Settings: BODIPY lipid droplet fluorescence, 18-24 h; for cell number change: measured here: cell count max response, cells fed with added oleic acid
Procedure, shortened: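 Drosophila S3 cells got compounds at several concentrations plus oleic acid (400 uM solution). Laser-scanning cytometry with 488 nm excitation read lipid droplets at 500-530 nm and cells at 575-640 nm. Percent activity was relative to 20 uM Triacsin C.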

[1] = measured here: cell number channel AC50, cells fed with added oleic acid
[2] = measured here: lipid fluorescence (Fed channel) AC50, cells fed with added oleic acid

| SMILES | cell number change [%] | AC50 [1] | AC50 [2] |
| --- | --- | --- | --- |
| Cc1ccc(C(=O)Nc2cccc(C(=O)O)c2)cc1S(=O)(=O)N1CCOCC1 | -38.4 | 11.6 µM [falling, partial curve] | – |
| O=C(c1ccccc1S(=O)(=O)NCc1ccccc1)N1CCCCC1 | -7.8 | – | 0.206 µM [falling, full curve] |
| O=C(Nc1cccnc1)c1sc(Nc2ccccc2F)nc1-c1ccccc1 | – | 0.651 µM [rising, single point] | 0.651 µM [rising, single point] |
| O=C(N=C1SC2CS(=O)(=O)CC2N1CCc1ccc(F)cc1)C1CCCCC1 (stereo unspecified) | -15.2 | – | – |
| CC1(C)CC(=O)C(N=Nc2ccc(OC(F)F)cc2)=C(O)C1 | 19.3 | 0.231 µM [rising, full curve, poor fit] | – |
| CCOC(=O)c1cnc2ccc(OC)cc2c1Nc1ccc2c(c1)OCCO2 | -37.6 | 32.6 µM [falling, single point] | 8.2 µM [falling, partial curve] |
| Cc1csc(=O)n1CC(=O)OCC(=O)Nc1ccc(F)c(F)c1 | 218 | 29.1 µM [rising, single point] | 14.6 µM [rising, partial curve] |
| Cc1ccc(C)c(-n2c(-c3csc(C)c3)n[nH]c2=S)c1 | 16.2 | – | 0.651 µM [falling, full curve, poor fit] |
| CSc1ccccc1NC(=O)CN(C)C(=O)CNc1ccc(C(F)(F)F)cc1[N+](=O)[O-] | 1.61 | – | 29.1 µM [falling, single point] |
| Cc1ccsc1/C=C(/C#N)C(=O)NCc1ccccc1 | 11.3 | – | – |
| Cc1cc(C)c(C2=CSC3=NS(=O)(=O)CCN23)c(C)c1 | 2.2 | – | 0.259 µM [falling, partial curve, poor fit] |
| CN1CCC(OC(=O)c2cc3cc(Cl)cc(Cl)c3oc2=O)CC1 | 22 | – | 8.2 µM [rising, partial curve, poor fit] |
| O=C(Nc1cccc(S(=O)(=O)NC2=NCCC2)c1)c1c(F)cccc1Cl | 0.803 | – | – |
| Cc1csc(=O)n1CC(=O)OCC(=O)c1c(N)n(CC(C)C)c(=O)n(C)c1=O | 36.7 | 10.3 µM [rising, partial curve] | – |
| Cc1ccc2c(c1)[nH]c1c(=O)n(Cc3ccco3)cnc12 | – | 0.00517 µM [rising, full curve, poor fit] | 0.0116 µM [rising, full curve, poor fit] |
| Cc1ccccc1NC(=O)C1CC(=O)N(Cc2ccccc2)C1 (stereo unspecified) | 29 | – | 5.8 µM [rising, full curve, poor fit] |
| O=C(N1CCOCC1)N1CCc2ccccc21 | 4.05 | – | 29.1 µM [falling, single point] |
| CC(=O)Nc1ccc(S(=O)(=O)Nc2cccc(-c3nc4ccccc4o3)c2)cc1 | – | – | 29.1 µM [rising, partial curve] |
| CSc1ncc(CN2CCN(CCC(C)C)C(CCO)C2)cn1 (stereo unspecified) | 7.12 | – | 23.1 µM [rising, partial curve] |
| O=C(COC(=O)c1ccc(Cl)nc1)NC1CCCCCC1 | 13.5 | – | 1.84 µM [rising, single point] |

| SMILES | cell number change [%] | AC50 [1] | AC50 [2] |
| --- | --- | --- | --- |
| COc1cc(NC(=S)NC(=O)c2ccc(C)cc2C)ccc1NC(=O)c1cccs1 | – | – | 0.517 µM [falling, single point] |
| O=C(/C=C/c1ccc(Cl)cc1)OCC(=O)c1ccc[nH]1 | -10.4 | – | 32.6 µM [falling, single point] |
| COc1cccc(NC(=O)CC2COc3ccccc3O2)c1 (stereo unspecified) | -13.8 | – | 29.1 µM [rising, single point] |
| Cc1nonc1CN(C)C(=O)CC1C(=O)NCCN1Cc1ccc(F)c(F)c1 (stereo unspecified) | -16.9 | – | – |
| O=C(NCc1ccc(Cl)cc1)c1cccc(S(=O)(=O)N2CCCC2)c1 | -4.39 | – | 3.26 µM [falling, single point] |
| O=C(c1ccc(CNc2c(N3CCCC3)c(=O)c2=O)cc1)N1CCN(C2CCCCC2)CC1 | -29.9 | 0.0184 µM [falling, full curve, poor fit] | 0.146 µM [falling, full curve] |
| O=c1[nH]c(Cc2cccs2)nc2ccccc12 | 37.4 | 29.1 µM [rising, single point] | 7.31 µM [falling, partial curve, poor fit] |
| Cc1nc([N+](=O)[O-])c(C(=O)O)n1C | 10.5 | 3.66 µM [falling, single point] | 5.17 µM [falling, single point] |
| C=CCN1C(=O)C(Cc2ccc(F)cc2)S/C1=N/N=C/c1ccco1 (stereo unspecified) | -9.44 | – | 0.00517 µM [falling, full curve, poor fit] |
| Cc1cc(Br)ccc1OCC(=O)NNC(=O)C(=O)Nc1ccccc1 | 31.3 | 18.4 µM [rising, partial curve, poor fit] | – |
| NS(=O)(=O)c1cccc(NC(=O)CNC(=O)CC23CC4CC(CC(C4)C2)C3)c1 | -4.93 | – | – |
| Cc1ccc(CNC(=O)CSc2nc3n[nH]c(C)c3c(=N)n2-c2cccc(C)c2)cc1 | – | 0.291 µM [rising, partial curve, poor fit] | 6.51 µM [rising, partial curve, poor fit] |
| CC(=O)c1ccc(OCCCCCCCOc2ccc(C(C)=O)cc2)cc1 | 12.9 | – | 6.51 µM [falling, single point] |
| O=C(Nc1ccc(S(=O)(=O)N2CCCCC2)cc1)c1ccncc1 | -12.9 | – | – |
| CCOC(=O)C(Cc1ccccc1)NC(=O)CCc1nnc2ccc(N3CCCCC3)nn12 (stereo unspecified) | -33.1 | 0.103 µM [falling, full curve, poor fit] | – |
| CCN1CCN(c2ccc(NC(=O)CCc3c(C)nc4c(-c5ccccc5)c(C)nn4c3C)cc2)CC1 | -35.9 | 29.1 µM [falling, single point] | – |
| COc1ccc(C(=O)NCC(=O)OCn2nnc3ccccc3c2=O)cc1OC | 3.28 | – | – |
| CC(C)(C)c1cc(/C=N/O)cc(C(C)(C)C)c1O | -37.2 | 29.1 µM [falling, single point] | 25.9 µM [falling, single point] |
| COc1cc(C(=O)OC2CCN(C)CC2)cc(OC)c1OC | -44.5 | 29.1 µM [falling, single point] | – |
| N=c1c2c(n(Cc3ccc(Cl)cc3)c3c1CCC3)CCC2 | -49.4 | 20.6 µM [falling, single point] | 0.731 µM [rising, full curve, poor fit] |

| SMILES | cell number change [%] | AC50 [1] | AC50 [2] |
| --- | --- | --- | --- |
| CCCn1c(SCC(=O)Nc2nnc(CC)s2)nc2c1c(=O)n(C)c(=O)n2C | -8.26 | – | – |
| COc1cc(OC)cc(-c2cc3nc(C)c(CCC(=O)NC(C)CCc4ccco4)c(C)n3n2)c1 (stereo unspecified) | – | – | 6.51 µM [rising, single point] |
| Cc1ccc(N2C(=O)CC(Sc3ncccn3)C2=O)cc1C (stereo unspecified) | 39.6 | 0.00461 µM [rising, full curve, poor fit] | 29.1 µM [rising, single point] |
| COc1ccc(NC(=O)C2CCCN(S(=O)(=O)c3ccc4c(c3)CC(C)N4C(C)=O)C2)cc1 (stereo unspecified) | -7.91 | – | 2.91 µM [rising, single point] |
| Cc1ccc(NC(=O)c2ccc(Cn3cc([N+](=O)[O-])cn3)cc2)c(C)c1 | 0.235 | – | – |
| COc1ccc(NC(=O)c2cc(S(=O)(=O)N3CCCC3)c[nH]2)cc1 | -4.19 | – | 0.092 µM [rising, full curve, poor fit] |
| COc1ccc(C(=O)COC(=O)COc2cccc3c2OC(C)(C)C3)c(OC)c1 | – | 5.17 µM [falling, single point] | – |
| CC(C)(C)c1ccc(C(=O)NCC(=O)OCC(=O)N2CCN(S(=O)(=O)c3ccc(Cl)cc3)CC2)cc1 | -34.9 | 8.2 µM [falling, partial curve, poor fit] | 5.8 µM [falling, partial curve, poor fit] |
| COc1ccc(-c2csc(N(CCCN(C)C)C(=O)c3ccc(C(C)(C)C)cc3)n2)cc1 | -57.7 | – | 29.1 µM [falling, single point] |
| NC(=O)c1c(NC(=O)CSc2nnc(-c3ccccc3)n2CC2CCCO2)sc2c1CCC2 (stereo unspecified) | – | 3.26 µM [rising, partial curve] | 0.291 µM [rising, partial curve, poor fit] |
| Cc1ccc(C(=O)N2CCCC(CCC(=O)NCc3ccc(F)c(F)c3)C2)cn1 (stereo unspecified) | 13.8 | – | 25.9 µM [falling, single point] |
| CCCCNc1nnc(Cc2ccc(Cl)cc2)c(=O)[nH]1 | 20.4 | 0.00517 µM [rising, full curve, poor fit] | – |
| CN1c2ccccc2N(C)C1c1ccc2c(c1)OCO2 | – | – | 0.651 µM [falling, single point] |
| O=C(CSc1ccc2ccccc2n1)NC1CC1 | -6.89 | – | 29.1 µM [rising, single point] |
| Cc1cc(C(=O)OCC(=O)NCc2ccccc2)c(C)o1 | – | – | 23.1 µM [rising, partial curve] |
| CCOc1ccc2nc(NC(=O)CN3CCC(n4nnc5cc(F)ccc54)CC3)sc2c1 | 53.7 | 0.366 µM [rising, full curve, poor fit] | 0.366 µM [rising, full curve] |
| Cc1cc(Cl)c(C(=O)Nc2cccc(C(F)(F)F)c2)c(C)n1 | -15 | – | 29.1 µM [falling, single point] |
| Cc1ccccc1OCC(=O)OCC(=O)NCc1cccs1 | -0.23 | – | 29.1 µM [falling, single point] |

Reference: PubChem BioAssay AID2685 (National Center for Advancing Translational Sciences (NCATS), 2010)
